# Results from patent US20140113288A1.
# Amino acid sequences for entries named in this document (tags omitted). Residues count along the entry.
# UniProt Q9UQF0, residues 21-317: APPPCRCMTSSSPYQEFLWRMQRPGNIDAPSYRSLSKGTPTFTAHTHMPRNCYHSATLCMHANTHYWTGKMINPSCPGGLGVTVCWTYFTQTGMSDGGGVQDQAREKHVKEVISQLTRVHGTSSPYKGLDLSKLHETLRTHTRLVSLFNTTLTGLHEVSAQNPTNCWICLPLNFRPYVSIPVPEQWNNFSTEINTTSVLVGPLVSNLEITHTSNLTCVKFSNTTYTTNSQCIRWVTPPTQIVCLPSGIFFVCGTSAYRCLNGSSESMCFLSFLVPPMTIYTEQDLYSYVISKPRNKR
# Results are given in words; binding and its absence hold for the method and conditions named. In cells and extracts the contact can be indirect. Some results given as binding are weak or reduced against the parent protein; the word gives no strength. Tags and fused reporters may be left off the sequences shown.
# B1: HtrA4mt-FLAG (enzyme, human, UniProt P83105 32-476, looked up, not shown: small tags and cut ends)
# chain: EKLHTQPSCPAVCQPTRCPALPTCALGTTPVFDLCRCCRVCPAAEREVCGGAQGQPCAPGLQCLQPLRPGFPSTCGCPTLGGAVCGSDRRTYPSMCALRAENRAARRLGKVPAVPVQWGNCGDTGTRSAGPLRRNYNFIAAVVEKVAPSVVHVQLWGRLLHGSRLVPVYSGSGFIVSEDGLIITNAHVVRNQQWIEVVLQNGARYEAVVKDIDLKLDLAVIKIESNAELPVLMLGRSSDLRAGEFVVALGSPFSLQNTATAGIVSTKQRGGKELGMKDSDMDYVQIDATINYGNAGGPLVNLDGDVIGVNSLRVTDGISFAIPSDRVRQFLAEYHEHQMKGKAFSNKKYLGLQMLSLTVPLSEELKMHYPDFPDVSSGVYVCKVVEGTAAQSSGLRDHDVIVNINGKPITTTTDVVKALDSDSLSMAVLRGKDNLLLTVIPETIN
# Tests used:
# [1] = target: GST-SU (human) (UniProt Q9UQF0); experiment: GST pull-down, immunoblot with FLAG mAb
# [2] = target: GST-SU (human) (UniProt Q9UQF0); experiment: GST-SU pull-down, immunoblot with FLAG mAb
binder,measurement,setting,value
B1,binding,[1],binds
same,binding,[2],binds
